Some results were stated once for a whole list of compounds, not compound by compound.
What was measured:
[1] = biological target: T1, senile plaques (Homo sapiens, UniProt P05067); assay: Staining of senile plaques and diffuse plaques in brain sections, compared with thioflavin S, BSB or anti-Aβ antibody 6F/3D immunostaining; assay type: binding; conditions: brain sections of a patient with Alzheimer's disease
T1 construct: The former has, as the main component, amyloid β-protein (Aβ protein) taking β-sheet structures; from tissue; host or cells: paraffin-embedded temporal lobe or hippocampus sections of an Alzheimer's disease patient's brain (Fukushimura Hospital)
Excerpt: The following explanation is made about testing of staining properties of the compounds of the present invention on brain sections of an Alzheimer's disease patient. • (1) Temporal lobe or hippocampus specimens of the brain of a patient who had been definitely diagnosed pathologically as Alzheimer's disease and of a normal aged individual were used. These specimens were provided from Fukushimura Hospital, our joint research facility, with the consent to their use for research purpose received from the bereaved family of the patient (BF Research Laboratories Institutional Ethics Board Permission No. RS-99-02). • (2) The brain tissues embedded in paraffin were sliced 6 or 8 µm thick, extended on slides, and dried. The paraffin-embedded brain sections were deparaffined by washing sequentially with xylene (10 minutes, twice), 100% ethanol (15 minutes, twice), 95% ethanol (15 minutes, twice), and a stream of water (10 minutes). • (3) Pre-treatment for staining with compounds of the present invention involved treating the sections for eliminating self-fluorescence due to lipofuscin. First, the deparaffined sections were immersed into a 10% formalin solution for 60 minutes and washed with PBS for 5 minutes, followed by immersion into a 0.25% solution of KMnO4 for 90 minutes. […]

Chains of the proteins cited; added tags and fusions are not shown. Residues count along the entry.
UniProt P05067, 672-713 limits assumed: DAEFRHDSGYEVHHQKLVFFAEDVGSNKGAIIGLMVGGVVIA

[2] = test system: neurofibrillary tangles; assay: Staining of neurofibrillary tangles in brain sections, compared with thioflavin S or anti-phosphorylated tau antibody pSer422; assay type: binding, patient with Alzheimer's disease; conditions: for specificity of staining to tau protein (neurofibrillary tangles): compared with thioflavin S on adjacent section (Fig. 17)

Compound: CNc1ccc(/C=C/C=C/c2nc3ccccc3o2)cc1 [BF-185, 2-[[4-(4-methylamino)phenyl]-1,3-butadienyl)benzoxazole]
- affinity for and staining of diffuse plaques [1]: display affinity also for diffuse plaques and provide their clear staining

Compound: CN(C)c1ncc(-c2ccc3ccccc3n2)o1 [BF-221, 2-(2-dimethylaminooxazol-5-yl)quinoline]
- staining of phosphorylated tau protein recognized by antibody pSer422 ([2]; adjacent section immunostained with pSer422 (Fig. 18)): stained phosphorylated tau protein
- specificity of staining to tau protein (neurofibrillary tangles) [2]: has high specificity to tau protein

Compound: thioflavin S [reference compound]
- specificity of staining to tau protein (neurofibrillary tangles) [2]: provided enough staining of proteins other than tau protein

Reference: patent EP1655287A1, “PROBE FOR DISEASES WITH AMYLOID ACCUMULATION, AMYLOID-STAINING AGENT, REMEDY AND PREVENTIVE FOR DISEASES WITH AMYLOID ACCUMULATION AND DIAGNOSTIC PROBE AND STAINING AGENT FOR NEUROFIBRILLARY CHANGE” (priority 2003, dated 2005)
